In article PMC7819943, “Rice protein-binding microarrays: a tool to detect cis-acting elements near promoter regions in rice”:
This is one part of the list.

By UniProt entry, the sequences of proteins in these tests, tags left out.
UniProt Q0JBA9, entry or part of it: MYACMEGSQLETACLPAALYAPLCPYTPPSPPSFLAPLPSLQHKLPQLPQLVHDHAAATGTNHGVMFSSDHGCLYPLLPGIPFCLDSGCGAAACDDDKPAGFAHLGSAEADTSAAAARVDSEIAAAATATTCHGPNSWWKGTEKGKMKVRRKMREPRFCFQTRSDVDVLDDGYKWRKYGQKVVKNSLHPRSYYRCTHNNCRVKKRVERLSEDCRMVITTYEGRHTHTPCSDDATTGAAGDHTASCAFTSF

What follows are sequences tested against OsWRKY34 (Oryza sativa, UniProt Q0JBA9 1-250) (assay: protein-binding microarray (RPBM); PBS, 2% BSA, 51.3 ng/ul salmon testes DNA, 50 uM zinc acetate, 200 nM TF, 25 C, 1 h; high values mean tight binding). Details: protein: recombinant; tags: N-terminal polyhistidine and DsRed monomer fusion (pET32a); label: CyDye5-dUTP incorporated in the synthesized complementary strand; 3' TTTTT single-stranded linker to array surface; dsDNA, one strand shown.
Procedure, shortened: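 Binding signal is reported as fluorescence intensity per feature (arbitrary units) from an Axon 4000B scanner. Incubation used 200 nM of each Ni–NTA-purified, N-terminally polyhistidine- and DsRed-fused transcription factor from E. coli BL21-CodonPlus on a double-stranded custom Agilent array for 1 h at 25 °C, with 50 µM zinc acetate in the buffer, followed by washing.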

Sequence | binding signal
CATCATCTTCTTCTTCTTCTTCTTCTTCTTCTTCTTCTTCCGGAGTCACCTAGTGCAG | 11800 fluorescence intensity (a.u.)
ATCCTATTTGTGTCACCATCACCTGTAGATTTTATGATTACGGAGTCACCTAGTGCAG | 10300 fluorescence intensity (a.u.)
TCACACTGTTGTTAAAAGGTCCATTATTATGTGTTCCCATCGGAGTCACCTAGTGCAG | 9850 fluorescence intensity (a.u.)
TATTCTGCACTATCATTCCTAGATCTTTACATTTCCTTAGCGGAGTCACCTAGTGCAG | 8400 fluorescence intensity (a.u.)
TGCTGTCATGCACCCCATTCGTCCGGGTTCAATTCTCCTCCGGAGTCACCTAGTGCAG | 10400 fluorescence intensity (a.u.)
GTCACCATCCCGTCTTCTCCGCCAGTCGCCTCACGCCCGGCGGAGTCACCTAGTGCAG | 8870 fluorescence intensity (a.u.)
GCCAGCTCGTCCACCATAGTTGCCTTCCATCCCGCCATAGCGGAGTCACCTAGTGCAG | 12100 fluorescence intensity (a.u.)
GCATAACCTGTAGCAACCTCACCGGCCATGTCCTCAAGCTCGGAGTCACCTAGTGCAG | 12000 fluorescence intensity (a.u.)
GGATACTGTGCCATTGTGCCTTTCTCGGGTCATCAGTCCACGGAGTCACCTAGTGCAG | 11200 fluorescence intensity (a.u.)
CAATGGCCACGCCGTCTTGCAACCGCACTACTGCAGTTACCGGAGTCACCTAGTGCAG | 8850 fluorescence intensity (a.u.)
CTATCTAAATTAATACTCAATTAATCATATTTTAATTACCCGGAGTCACCTAGTGCAG | 15300 fluorescence intensity (a.u.)
CACGTCCATCTGCCCAATCCGGGTTCATCGGAAGACGACGCGGAGTCACCTAGTGCAG | 8850 fluorescence intensity (a.u.)
GTGTGTTGTTGTTCTTGTTTTGGTTCTTTTCTAGTAGTATCGGAGTCACCTAGTGCAG | 8750 fluorescence intensity (a.u.)
GCGGGTGAAAAAGGTGGGGAGCTGAACAAAACGACTGGCTCGGAGTCACCTAGTGCAG | 8880 fluorescence intensity (a.u.)
GTTTTCTTTCATTAAAAGCTGCATTTCCATATTATTTTTTCGGAGTCACCTAGTGCAG | 13900 fluorescence intensity (a.u.)
ATTTCCTACAAGTTCATGCGCATTCATACAATGAACCCCACGGAGTCACCTAGTGCAG | 9310 fluorescence intensity (a.u.)
ACACTTATTTTGGGACGGATGTGGTATTAAGTCACACTCACGGAGTCACCTAGTGCAG | 9020 fluorescence intensity (a.u.)
AGTTTTGCACTATTCATCTCCAATGTTTGACCGTTCGTTTCGGAGTCACCTAGTGCAG | 10300 fluorescence intensity (a.u.)
CCCCACGACGCCACGTACTCTCGGTCTCTCGCCCCGCGCCCGGAGTCACCTAGTGCAG | 11000 fluorescence intensity (a.u.)
GTTATTATTCCCATTCTATTTTTTTTCTTCTAGGTCGCTCCGGAGTCACCTAGTGCAG | 10600 fluorescence intensity (a.u.)
TAAACCTCTCCCTCTATTCCCAAACCCCAACATCTCCACTCGGAGTCACCTAGTGCAG | 8280 fluorescence intensity (a.u.)

Sequence | binding signal
AGACTAGAAACTTTCGGCCCGTCATTCTCATATTTTCGAACGGAGTCACCTAGTGCAG | 8660 fluorescence intensity (a.u.)
GCTAGCCTCACTCCATGCTCACCACTTTCTCGGCTTTCTCCGGAGTCACCTAGTGCAG | 14100 fluorescence intensity (a.u.)
CACACGCTACCCCGACTCGTCGCCTTCGCCTTGCTCGTCTCGGAGTCACCTAGTGCAG | 18000 fluorescence intensity (a.u.)
TCCAGTTTATCTCACTTCTAGTTTATTTTTCTTCTAAAATCGGAGTCACCTAGTGCAG | 9090 fluorescence intensity (a.u.)
GACCACAGCTGCACCCACACACCCACCTTGCTCTTTCTCGCGGAGTCACCTAGTGCAG | 8170 fluorescence intensity (a.u.)
GCAATGTTGGGCTGTGGGTAATTATTTTGATCAAAAGTCACGGAGTCACCTAGTGCAG | 11900 fluorescence intensity (a.u.)
TTGGATGGAAGGCCAAACATATGCACTGTTTATTTTTCTGCGGAGTCACCTAGTGCAG | 8210 fluorescence intensity (a.u.)
GTGGCTGAGGTGTGTTGTCCGATATTTCTCTTCCCATCCGCGGAGTCACCTAGTGCAG | 8500 fluorescence intensity (a.u.)
TTGACTTTTTATTAACGTTTGACCATTTGTTTTATTTAAACGGAGTCACCTAGTGCAG | 12000 fluorescence intensity (a.u.)
AAACAGGTAGAAGGAGGGAGGGGAAGGTGGGAGCGAATATCGGAGTCACCTAGTGCAG | 9720 fluorescence intensity (a.u.)
CCTCGGTTGTTTTGTGCTGAGAGTGATTTTGGTGTGAATACGGAGTCACCTAGTGCAG | 8540 fluorescence intensity (a.u.)
AGTTGAGGGACCTTAGGTGTACTCTTTCCTTTTGTCCATTCGGAGTCACCTAGTGCAG | 11100 fluorescence intensity (a.u.)
CCTCCCACGGCATCCTCCCGCGCACTCTACGTCTCTACTGCGGAGTCACCTAGTGCAG | 8120 fluorescence intensity (a.u.)
TTCTTCCTCCTGGTAGATGGTTGGTCACATTGGTCAAGATCGGAGTCACCTAGTGCAG | 10900 fluorescence intensity (a.u.)
CTCGTTGGTCTCCTCTCTCTCTCTGTGTTCTTGGTGTTCCCGGAGTCACCTAGTGCAG | 9580 fluorescence intensity (a.u.)
AAACCACCCCACCTTGCATACTATGTTCATCCTCGTGTCACGGAGTCACCTAGTGCAG | 10100 fluorescence intensity (a.u.)
CCATCCACCGCCGCCTCCGCTCTCTCTTCTTCTTCTTCCTCGGAGTCACCTAGTGCAG | 10800 fluorescence intensity (a.u.)
ACACGTAATGGATACTTTTGCCGAAGTGAACACATGCTTTCGGAGTCACCTAGTGCAG | 8940 fluorescence intensity (a.u.)
ACTTTGACTAGGGTTGGACTAATATATCTCTCTCCCTCACCGGAGTCACCTAGTGCAG | 9740 fluorescence intensity (a.u.)
GGACCTGTTTGTTTGTTTTTTGTTTTACTTCTTCTAATATCGGAGTCACCTAGTGCAG | 12500 fluorescence intensity (a.u.)
ACTCCACTTTCTCGCCTCTACTGTTTGCCATGGCCCAAATCGGAGTCACCTAGTGCAG | 15600 fluorescence intensity (a.u.)

Sequence | binding signal
CACTTTGTTTTTTTCTCTGCATCGTCGTCGTACCTAGCACCGGAGTCACCTAGTGCAG | 8630 fluorescence intensity (a.u.)
ATCACGGGTGGGGCGTCGGATCTCGCGATCACGGGCGGGCCGGAGTCACCTAGTGCAG | 11800 fluorescence intensity (a.u.)
AGTTTTATTTCTCATAATGTATCCTAATTTTTAGCCTAATCGGAGTCACCTAGTGCAG | 8660 fluorescence intensity (a.u.)
CATGCCACTCTCCGTCAGTTGACCGTGTGTTGACCATTAACGGAGTCACCTAGTGCAG | 13400 fluorescence intensity (a.u.)
AGCTCATTTGTTTGTTTGTTTGTTTTTGTGTGTGTCGAAGCGGAGTCACCTAGTGCAG | 9050 fluorescence intensity (a.u.)
TTCCCCAATCTCCCGCGCGCTTGCTCTTCCTGGGCTTTTTCGGAGTCACCTAGTGCAG | 9230 fluorescence intensity (a.u.)
TTAAAAAAAGTTGGGTAATTGTGGGGTTTGTTTTTTCTCCCGGAGTCACCTAGTGCAG | 9490 fluorescence intensity (a.u.)
TTTCACTCTACCCATTCCACATTACCGATTCTCGTGAAGCCGGAGTCACCTAGTGCAG | 9420 fluorescence intensity (a.u.)
ATACGCCATACTCATGTACCATCCATTTTGTCCTTTAAAACGGAGTCACCTAGTGCAG | 11200 fluorescence intensity (a.u.)
ATTCGCCATTTCCGCCCACTGCCACGCCAACGCCACTGCTCGGAGTCACCTAGTGCAG | 8280 fluorescence intensity (a.u.)
ATTGTAATCTAACGGTGTAGCTTTTTTCTCTTTTCTTCGACGGAGTCACCTAGTGCAG | 8190 fluorescence intensity (a.u.)
TAACTCCATTGACTATTTAGCATATCTTTGACCATTCGTCCGGAGTCACCTAGTGCAG | 13700 fluorescence intensity (a.u.)
GTTCTTTCCTTCCTCGTGAGGGTTCTTGCTTCTTGGCTTCCGGAGTCACCTAGTGCAG | 12600 fluorescence intensity (a.u.)
CTTTTGGGGTGGAACTGGTATAAGTTTGACTTTTGGGGAACGGAGTCACCTAGTGCAG | 14700 fluorescence intensity (a.u.)
CGGGGAGGGATTCTAATTAGTCAAGTGAAAGTCCACTCATCGGAGTCACCTAGTGCAG | 10900 fluorescence intensity (a.u.)
GCCTGCAGATCAAGCCAGGAGCTTCTTGAATTTCTTCTCTCGGAGTCACCTAGTGCAG | 8710 fluorescence intensity (a.u.)
GCGCGGGCAGCGTCGGCATTAGAGGGGTGGTGGCGGGCGGCGGAGTCACCTAGTGCAG | 10500 fluorescence intensity (a.u.)
TTTTTGTTTCTATTGGAGGTTGTCATGTTTATCTACCTTTCGGAGTCACCTAGTGCAG | 9650 fluorescence intensity (a.u.)
GCTTGCGAGCCTAGGCCATCGTGTGTTTATATTGATTATTCGGAGTCACCTAGTGCAG | 8450 fluorescence intensity (a.u.)
CATGCCCTTTGAGACTTTGATCGAGTGCATGCTTAATTACCGGAGTCACCTAGTGCAG | 9550 fluorescence intensity (a.u.)
TTATCTCCTCGGCTTTTCTCGTCTCGTTCTCTCCTCCCTACGGAGTCACCTAGTGCAG | 10500 fluorescence intensity (a.u.)

Sequence | binding signal
GCCCTTCTATGTGATATTCTCTTTCTGATCGAGTTATTATCGGAGTCACCTAGTGCAG | 10700 fluorescence intensity (a.u.)
AGTATGCAGAACTGCCATCTCTTATTAGTACCAACTATATCGGAGTCACCTAGTGCAG | 10200 fluorescence intensity (a.u.)
CTTCTACTGCGTCGACTTGGAATTTTGCCGAATCTTTTTTCGGAGTCACCTAGTGCAG | 10400 fluorescence intensity (a.u.)
AACGCTGAACCTTCTGTCCTCTTACCTTAGTAAGTATTGCCGGAGTCACCTAGTGCAG | 10900 fluorescence intensity (a.u.)
GGGTCAGTTGATTGGTCGAGTTGAGGATGGCGGTGTTATACGGAGTCACCTAGTGCAG | 9040 fluorescence intensity (a.u.)
TAATATCTTGTGTAGTCTCACCGTGCATGTTTATTTTTTTCGGAGTCACCTAGTGCAG | 10800 fluorescence intensity (a.u.)
GCAATTCTCTCCCACTTCCGATCTCTTCTTCCGCTTGGACCGGAGTCACCTAGTGCAG | 8130 fluorescence intensity (a.u.)
CAGCGCCGCCGCCACCACCACCACCGCTTCGTCGTCTCTCCGGAGTCACCTAGTGCAG | 10700 fluorescence intensity (a.u.)
TCTTTCGAGTTTTCTTATTATATGTTTCACCCGAATCTTTCGGAGTCACCTAGTGCAG | 9260 fluorescence intensity (a.u.)
ACTCCGCTGTATATATATCTTCCTTTTCCTTTCTTTCTCTCGGAGTCACCTAGTGCAG | 11000 fluorescence intensity (a.u.)
ACCTGAAATCCCGCTTTGTCATTGGGTACGTTGTGTCATCCGGAGTCACCTAGTGCAG | 9460 fluorescence intensity (a.u.)
GTTTTTCGTCGCTTCTCTTCTTGAAGACGTCGTTTTGGCACGGAGTCACCTAGTGCAG | 8370 fluorescence intensity (a.u.)
ATGCTTGCTTGCCTGCCTTATCTGCGTCTTGAATTGCATCCGGAGTCACCTAGTGCAG | 10100 fluorescence intensity (a.u.)
GCATTGGTCATGTCATGTGGGCCACTTAAACGTGTGATTACGGAGTCACCTAGTGCAG | 8260 fluorescence intensity (a.u.)
ACCTACTCTCTCTCTCTGTCTCTCGCTCTCGCCGTCGCCGCGGAGTCACCTAGTGCAG | 10900 fluorescence intensity (a.u.)
CGATCATCTCCTCAAGCCATAGCAATGCATCATATGTTCTCGGAGTCACCTAGTGCAG | 9520 fluorescence intensity (a.u.)
GTACTAGCTAGCTACCACTCTATCTTCTTCTTCTTCTACCCGGAGTCACCTAGTGCAG | 8290 fluorescence intensity (a.u.)
CAATCCAATCCGGGCCCACCTGTCATACAAATATCCACGACGGAGTCACCTAGTGCAG | 8070 fluorescence intensity (a.u.)
GAACATCCATGTGTATTTCCATTTCGTTTATACTATATGCCGGAGTCACCTAGTGCAG | 9200 fluorescence intensity (a.u.)
TTCACTTGGATCTTGTTGATGGTTTTTTTTTAGAATTACACGGAGTCACCTAGTGCAG | 10300 fluorescence intensity (a.u.)
GGAATAAGTTCACTTTAGGTCTCTCTATTTGTTGACCAGTCGGAGTCACCTAGTGCAG | 9670 fluorescence intensity (a.u.)

Some of the entries above in a different format:
Sequence	binding signal
AGTATGCAGAACTGCCATCTCTTATTAGTACCAACTATATCGGAGTCACCTAGTGCAG	10200 fluorescence intensity (a.u.)
GCAATTCTCTCCCACTTCCGATCTCTTCTTCCGCTTGGACCGGAGTCACCTAGTGCAG	8130 fluorescence intensity (a.u.)
CAGCGCCGCCGCCACCACCACCACCGCTTCGTCGTCTCTCCGGAGTCACCTAGTGCAG	10700 fluorescence intensity (a.u.)
ACTCCGCTGTATATATATCTTCCTTTTCCTTTCTTTCTCTCGGAGTCACCTAGTGCAG	11000 fluorescence intensity (a.u.)
GTTTTTCGTCGCTTCTCTTCTTGAAGACGTCGTTTTGGCACGGAGTCACCTAGTGCAG	8370 fluorescence intensity (a.u.)
